Experimental data taken from article PMC5634637.
These are yes or no findings as the source states them, for the method shown. Some binding calls cover weakened binding; strength is not graded here.

Key:
[1] = molecular target: T1, mouse IL-10 receptor 1 (IL-10R1), on transfected CHO-K1 cells (co-transfected with empty vector) (mouse) (UniProt Q61727); experiment: flow cytometry on cells; 1.0x10^6 transfected CHO-K1 cells incubated with 40 ng IL-10 for 1 h at 4°C; surface-bound IL-10 cross-linked for 2 h at 4°C with 2.5 mM BS3; detected with goat polyclonal anti-IL-10 and PE-conjugated donkey anti-goat IgG; mean fluorescent intensity of cells without IL-10 subtracted; only the binder purified
T1 sequence: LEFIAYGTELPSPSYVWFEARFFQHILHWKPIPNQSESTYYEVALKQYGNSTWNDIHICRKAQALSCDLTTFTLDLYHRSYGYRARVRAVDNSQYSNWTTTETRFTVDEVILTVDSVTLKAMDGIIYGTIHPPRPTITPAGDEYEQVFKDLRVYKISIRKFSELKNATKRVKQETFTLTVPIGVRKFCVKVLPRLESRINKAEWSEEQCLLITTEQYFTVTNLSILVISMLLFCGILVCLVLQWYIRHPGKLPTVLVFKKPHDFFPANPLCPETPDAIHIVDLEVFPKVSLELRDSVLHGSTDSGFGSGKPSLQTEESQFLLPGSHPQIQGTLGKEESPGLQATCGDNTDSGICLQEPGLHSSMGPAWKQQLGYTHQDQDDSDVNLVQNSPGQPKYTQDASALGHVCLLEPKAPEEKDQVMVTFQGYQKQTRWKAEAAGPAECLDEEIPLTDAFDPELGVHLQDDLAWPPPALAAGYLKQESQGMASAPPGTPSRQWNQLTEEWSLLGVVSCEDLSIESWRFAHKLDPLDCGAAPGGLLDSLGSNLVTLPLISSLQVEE

[2] = molecular target: T2, mouse IL-10R1 co-expressed with full mouse IL-10R2 on CHO-K1 cells (mouse) (UniProt Q61727+Q61190); experiment: as above
T2 sequence 1: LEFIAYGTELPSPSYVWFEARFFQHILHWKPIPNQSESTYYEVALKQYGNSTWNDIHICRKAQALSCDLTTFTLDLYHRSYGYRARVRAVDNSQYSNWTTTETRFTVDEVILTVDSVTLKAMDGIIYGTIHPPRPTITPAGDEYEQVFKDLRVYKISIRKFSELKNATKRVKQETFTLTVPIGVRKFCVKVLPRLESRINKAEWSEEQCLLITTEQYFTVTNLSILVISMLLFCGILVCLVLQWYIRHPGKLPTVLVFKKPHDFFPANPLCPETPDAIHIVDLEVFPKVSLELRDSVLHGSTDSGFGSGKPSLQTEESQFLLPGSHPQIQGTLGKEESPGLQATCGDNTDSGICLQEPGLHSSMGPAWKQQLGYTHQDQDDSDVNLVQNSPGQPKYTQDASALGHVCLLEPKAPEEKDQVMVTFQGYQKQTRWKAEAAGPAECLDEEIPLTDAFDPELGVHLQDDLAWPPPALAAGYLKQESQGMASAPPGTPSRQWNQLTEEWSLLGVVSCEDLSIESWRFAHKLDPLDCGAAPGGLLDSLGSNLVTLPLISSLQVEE
T2 sequence 2: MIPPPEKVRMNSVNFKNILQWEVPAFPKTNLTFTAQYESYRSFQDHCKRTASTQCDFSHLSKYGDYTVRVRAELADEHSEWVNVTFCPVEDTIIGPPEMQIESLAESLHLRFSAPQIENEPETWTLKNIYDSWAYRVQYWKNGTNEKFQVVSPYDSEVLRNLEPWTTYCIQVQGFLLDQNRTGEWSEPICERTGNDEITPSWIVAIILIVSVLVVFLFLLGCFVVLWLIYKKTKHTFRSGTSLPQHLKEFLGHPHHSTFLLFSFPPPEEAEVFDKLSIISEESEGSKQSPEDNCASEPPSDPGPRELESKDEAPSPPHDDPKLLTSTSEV

binding [1]: binds | binding [2]: binds
B1: Interleukin-10 (recombinant IL-10) (ligand, UniProt P18893 19-178)
chain: SRGQYSREDNNCTHFPVGQSHMLLELRTAFSQVKTFFQTKDQLDNILLTDSLMQDFKGYLGCQALSEMIQFYLVEVMPQAEKHGPEIKEHLNSLGEKLKTLRMRLRRCHRFLPCENKSKAVEQVKSDFNKLQDQGVYKAMNEFDIFINCIEAYMMIKMKS
